Source: PubChem BioAssay AID1347076 (National Center for Advancing Translational Sciences (NCATS), 2019)
Out of some 400,000 compounds screened, about 13,000 (3.2%) were called active. The shares of active, inactive and inconclusive entries below differ from those in the screen. Calls come from the whole dose curve; as a rule, active = well fitted cell-killing curve with a large enough effect; inconclusive = small, poorly fitted or top-dose-only effect, or effect the other way; inactive = flat fitted curve, though single readings scatter. Potencies of inconclusive entries are doubtful fits and often do not repeat.

Assay: qHTS assay for MDR1-selective chemotherapeutics: Primary screen using the drug-selected MDR subline cells KB-V1; note: nearly all actives have a fitted effect of over 60% in size
Settings: KB-V1 MDR cells viability, CellTiter-Glo, 72 h; activity change, negative = cytotoxicity: at 46.1 µM (top of the series)
In short: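 Potencies derive from concentration-effect curves fitted to normalized luminescence (CellTiter-Glo) of KB-V1 cells treated for 72 h at 37 degrees C in phenol-red-free DMEM containing 10% FBS.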
% is set by controls: 0 for no effect and ±100 for the full control effect; potency is the fitted concentration of half-maximal effect.

SMILES	Potency	activity change, negative = cytotoxicity
CCCCN(C)Cc1cc(=O)oc2ccc3ccccc3c12	inconclusive: 32.6 µM [rising, partial curve, poor fit]	
Cc1cc(=O)nc2c3ccccc3n(CC(=O)NCCC3=CCCCC3)n12		inactive: -6.57%
Cc1ccc(NC(=O)c2ccco2)c(NC(=O)c2cccs2)c1	inconclusive: 18.4 µM [cytotoxic, single point]	
NNC(=O)c1cc(-c2ccco2)[nH]n1		inactive: -26.1%
Cc1ccc(NS(=O)(=O)c2ccc(C(=O)N3CC(C)CC(C)C3)cc2)cc1 (centres undefined)	inconclusive: 10.3 µM [cytotoxic, partial curve, poor fit]	
CN1CCN(S(=O)(=O)c2cccc(C#N)c2)C(c2ccccc2)C1 (centres undefined)		inactive: 0%
COc1ccc(-c2cc(C)no2)cc1S(=O)(=O)NCc1ccco1	inconclusive: 29.1 µM [cytotoxic, single point]	
Cc1noc(-c2ccccc2)c1NC(=O)Nc1ccc(Cl)cc1	inconclusive: 7.31 µM [cytotoxic, partial curve, poor fit]	
N#C/C(=C/c1cn(-c2ccccc2)nc1-c1cccc(OCc2ccccc2)c1)C(=O)NCCCn1ccnc1	active: 9.2 µM	
COc1ccc(-n2c(SCc3ccccc3F)nc3c([nH]c4ccccc43)c2=O)cc1OC	inconclusive: 29.1 µM [cytotoxic, single point]	
Cc1onc(-c2ccccc2)c1C(=O)NC(=S)NNC(=O)c1cccnc1	inconclusive: 29.1 µM [cytotoxic, partial curve, poor fit]	
COc1cccc(C(=O)NNc2nc(C)cc(C)n2)c1	inconclusive: 16.4 µM [cytotoxic, single point]	
CC(=O)N1CCN(c2ccccc2NC(=O)COc2cc(C)cc(C)c2)CC1	inconclusive: 4.61 µM [cytotoxic, full curve]	
COc1ccc(CCNc2cc(C)nc3c(-c4ccc(Cl)cc4)c(C)nn23)cc1OC	inconclusive: 5.8 µM [cytotoxic, partial curve]	
COC(=O)c1c(NC(=O)COc2ccc(Cl)cc2)sc(C)c1C	inconclusive: 20.6 µM [rising, single point]	
CCOC(=O)N1CCC(NS(=O)(=O)c2ccc(NC(C)=O)c(Cl)c2)CC1	inconclusive: 32.6 µM [cytotoxic, single point]	
O=C(Nc1sc2c(c1C(=O)NCc1ccccc1)CCCC2)c1cc(=O)c2ccccc2o1		inactive: 0.889%
COc1ccc(C(=O)N=c2sc3c(C)ccc(OC)c3n2C)cc1	active: 5.8 µM	
C=CCn1c(=O)c(C(=O)NCc2ccc(Cl)cc2)c(O)c2ccccc21	inconclusive: 29.1 µM [cytotoxic, single point]	
CCc1ccc(NC(=O)C(=O)NCC(c2cccnc2)N2CCc3ccccc3C2)cc1 (centres undefined)	inconclusive: 4.11 µM [cytotoxic, full curve]	
O=C(c1cc(COc2ccc(F)cc2Cl)on1)N1CCC(OCc2cccnc2)CC1	inconclusive: 16.4 µM [cytotoxic, partial curve]	
Oc1cc(-c2ccc(N3CCCCC3)nc2)cc2cccnc12	inconclusive: 20.6 µM [cytotoxic, single point]	
O=C(c1cccs1)c1coc2ccc(O)c(CN3CCOCC3)c12	active: 2.91 µM	

Reformatted bar-delimited: two of the compounds above.
SMILES | Potency | activity change, negative = cytotoxicity
COc1ccc(CCNc2cc(C)nc3c(-c4ccc(Cl)cc4)c(C)nn23)cc1OC | inconclusive: 5.8 µM [cytotoxic, partial curve] | 
COC(=O)c1c(NC(=O)COc2ccc(Cl)cc2)sc(C)c1C | inconclusive: 20.6 µM [rising, single point] | 

2 records picked at random from those above, as already listed:
SMILES	Potency	activity change, negative = cytotoxicity
CCCCN(C)Cc1cc(=O)oc2ccc3ccccc3c12	inconclusive: 32.6 µM [rising, partial curve, poor fit]	
Cc1onc(-c2ccccc2)c1C(=O)NC(=S)NNC(=O)c1cccnc1	inconclusive: 29.1 µM [cytotoxic, partial curve, poor fit]	

(more compounds)

SMILES	Potency	activity change, negative = cytotoxicity
Cc1nnc(Oc2ccccc2F)c2ccccc12	inconclusive: 11.6 µM [cytotoxic, partial curve]	
COC(=O)c1ccc2c(=O)[nH]c(CSc3nc(-c4ccc(F)cc4)cs3)nc2c1		inactive: 11.9%
CC(=O)NCCNC(=O)[C@H](Cc1ccccc1)NC(=O)c1cccs1		inactive: -6.56%
CCOc1cc(Br)c(C=O)cc1OCC		inactive: -11.4%
COC(=O)c1ccc(CSc2nc(C(F)F)cc(C)c2C#N)o1		inactive: -2.44%
COc1ccc(C(=O)N2CCOC2CNC(=O)C(=O)NCc2ccc(Cl)cc2)cc1 (centres undefined)	active: 23.1 µM	
Cc1cccc(C(=O)NC(=S)Nc2ccc(N3CCOCC3)cc2)c1	active: 18.4 µM	
CC(C)Cc1nccs1		inactive: 0.765%
O=C(COc1ccc(C(=O)c2ccc(F)cc2)cc1)NCc1ccc(F)cc1	active: 9.2 µM	
CCCC#Cc1ccc2c(c1)O[C@H](CN(C)S(=O)(=O)c1cccc(OC)c1)[C@H](C)CN([C@H](C)CO)S2(=O)=O		inactive: -23.6%
CC1=C(C(=O)N2CCOCC2)CC(CC(=O)NC2CCCCC2)C(=O)N1Cc1ccccc1 (centres undefined)	inconclusive: 29.1 µM [rising, single point]	
O=C(Nc1cc(-c2ccc(Cl)cc2)no1)c1ccc(F)cc1	inconclusive: 20.6 µM [rising, single point]	
COc1ccccc1/C=C/C=N/NC(=O)c1cc(-c2ccc(C)o2)[nH]n1	inconclusive: 29.1 µM [cytotoxic, single point]	
Cc1ccc(C)c(N2CCN(C(=O)c3ccc4c(=O)n(CCc5ccccc5)c(=O)[nH]c4c3)CC2)c1		inactive: 5.07%
O=C(COC(=O)c1ccccc1C(=O)c1ccccc1)Nc1cccc([N+](=O)[O-])c1	inconclusive: 23.1 µM [cytotoxic, partial curve, poor fit]	
CC1CC(C)CN(CC(=O)NC(c2ccccc2)c2ccccc2)C1 (centres undefined)	inconclusive: 20.6 µM [cytotoxic, single point]	
O=C1c2ccccc2NC(c2c(Cl)cccc2Cl)N1Cc1ccccc1 (centres undefined)	inconclusive: 29.1 µM [cytotoxic, single point]	
COc1ccc(C(=O)C(CN2CCOCC2)c2ccccc2)cc1F (centres undefined)	inconclusive: 32.6 µM [cytotoxic, single point]	
CCOC(=O)c1[nH]c2c(c1Cc1ccccc1OC)C(=O)CC(c1ccccc1)C2 (centres undefined)		inactive: 0%
CC1CCN(CC(O)Cn2c3ccccc3c3ccccc32)CC1 (centres undefined)	inconclusive: 29.1 µM [cytotoxic, single point]	
COc1ccc(CC(C)N2CCN(c3ccccc3OC)CC2)cc1OC (centres undefined)	inconclusive: 2.91 µM [cytotoxic, partial curve]	
COc1ccccc1N(C)S(=O)(=O)c1ccc(C(=O)OCC(=O)N2CCC2)cc1	inconclusive: 29.1 µM [cytotoxic, single point]	
COC(=O)c1c(NC(=O)CCC(=O)O)sc2c1CCCCC2	inconclusive: 25.9 µM [rising, single point]	

SMILES	Potency	activity change, negative = cytotoxicity
Cc1nnc(SCC(=O)N/N=C/c2cn(-c3ccccc3)nc2-c2ccccc2)n1-c1ccccc1	inconclusive: 29.1 µM [cytotoxic, single point]	
CCc1ccccc1S(=O)(=O)c1c(C)cc(C)nc1Cl		inactive: 18.7%
N/C(=N\N=C/c1ccc(Br)cc1)N/N=C\c1ccc(Br)cc1	inconclusive: 18.4 µM [cytotoxic, single point]	
NC(=O)c1ccccc1NC(=O)CN1c2ccccc2S(=O)(=O)c2ccccc21		inactive: 19.5%
Cc1nc(-c2ccccc2)sc1CCNC(=O)C(=O)Nc1ccc(F)c(Cl)c1	inconclusive: 18.4 µM [cytotoxic, single point]	
Cc1cc(C(=O)OCC(=O)N2CCOCC2)ccc1[N+](=O)[O-]		inconclusive: -39.3%
COc1ccc(NS(=O)(=O)c2ccc3[nH]c(=O)ccc3c2)cc1OC	inconclusive: 16.4 µM [rising, single point]	
COc1cc(C2NC(=S)NC(C)=C2C(=O)c2ccccc2)ccc1O (centres undefined)	inconclusive: 20.6 µM [cytotoxic, single point]	
COCCn1c(C)cc(C(=O)COC(=O)c2ccc(N3CCCC3=O)cc2)c1C	inconclusive: 32.6 µM [cytotoxic, partial curve, poor fit]	
CC1(C)CC(=O)C=C(Nc2ccc(S(N)(=O)=O)cc2)C1	inconclusive: 14.1 µM [rising, partial curve, poor fit]	
CCOc1ccc(NC(=O)CN(C)C(=O)c2cccc3ccccc23)cc1OCC	inconclusive: 14.6 µM [cytotoxic, single point]	
CC(C)C[C@H]1COc2cc(N3CC[C@H](O)C3)ccc2S(=O)(=O)N1	inconclusive: 18.4 µM [cytotoxic, single point]	
Clc1ccccc1C1=Nn2c(nnc2-c2ccco2)SC1	inconclusive: 14.6 µM [cytotoxic, single point]	
CSc1ccc(CN2CCC(C)(Oc3ccccc3)C2)cc1 (centres undefined)		inactive: 2.31%
CCCCc1nnc(NC(=O)c2ccc(N3CCCC3=O)cc2)s1	inconclusive: 13 µM [cytotoxic, partial curve, poor fit]	
O=C1CS(=O)(=O)C2(C(=O)N(Cc3ccccc3)c3ccccc32)N1c1ccc(F)c(Cl)c1 (centres undefined)	inconclusive: 29.1 µM [cytotoxic, single point]	
COc1cc(CCC(=O)Nc2cc(C)cc(C)c2)cc(OC)c1OC	inconclusive: 18.4 µM [cytotoxic, single point]	
CCn1c(CSc2nc3ccccc3s2)nc2ccccc21	inconclusive: 18.4 µM [cytotoxic, partial curve, poor fit]	
COc1cc(NC(=O)CCN2CCN(c3ccccc3F)CC2)cc(OC)c1		inactive: 8.72%
Cc1ccccc1N(C(=O)Cn1nnc(-c2cccs2)n1)C(C(=O)NCCC(C)C)c1ccco1 (centres undefined)		inactive: -28.9%
CCCCCn1nc(C)c(/C=N\NC(=O)c2cc(C)oc2C)c1C	inconclusive: 18.4 µM [cytotoxic, partial curve]	
Cn1c(SCC(=O)Nc2sc3c(c2C#N)CCC3)nnc1C1COc2ccccc2O1 (centres undefined)	inconclusive: 9.2 µM [cytotoxic, partial curve, poor fit]	
CC(C)c1ccc(OCc2ccc(C(=O)O)o2)cc1	inconclusive: 5.17 µM [rising, partial curve]	
